Source: US20110190218A1
These are yes or no findings as the source states them, for the method shown. Binding seen in cells or lysates may run through a third protein. Some results given as binding are weak or reduced against the parent protein; the word gives no strength.

By UniProt entry, the sequences of proteins in these tests, tags left out. Residues count along the entry.
UniProt P0DMV8, residues 2-641: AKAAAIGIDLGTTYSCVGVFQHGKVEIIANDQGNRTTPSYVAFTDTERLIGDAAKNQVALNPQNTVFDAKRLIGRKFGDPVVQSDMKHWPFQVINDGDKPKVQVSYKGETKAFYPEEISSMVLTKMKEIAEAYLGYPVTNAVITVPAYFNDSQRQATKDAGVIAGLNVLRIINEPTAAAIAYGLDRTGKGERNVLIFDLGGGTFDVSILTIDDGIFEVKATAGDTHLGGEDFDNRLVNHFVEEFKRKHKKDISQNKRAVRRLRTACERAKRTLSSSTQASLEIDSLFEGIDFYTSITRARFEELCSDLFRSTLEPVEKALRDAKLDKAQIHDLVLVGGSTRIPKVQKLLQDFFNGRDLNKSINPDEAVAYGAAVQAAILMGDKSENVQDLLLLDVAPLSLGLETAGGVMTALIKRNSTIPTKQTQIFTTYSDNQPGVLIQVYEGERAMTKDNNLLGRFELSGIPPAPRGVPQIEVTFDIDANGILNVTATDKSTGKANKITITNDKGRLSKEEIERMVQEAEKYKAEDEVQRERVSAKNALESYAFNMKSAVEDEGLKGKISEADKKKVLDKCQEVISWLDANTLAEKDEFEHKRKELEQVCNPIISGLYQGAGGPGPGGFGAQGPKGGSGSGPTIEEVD
UniProt P10275: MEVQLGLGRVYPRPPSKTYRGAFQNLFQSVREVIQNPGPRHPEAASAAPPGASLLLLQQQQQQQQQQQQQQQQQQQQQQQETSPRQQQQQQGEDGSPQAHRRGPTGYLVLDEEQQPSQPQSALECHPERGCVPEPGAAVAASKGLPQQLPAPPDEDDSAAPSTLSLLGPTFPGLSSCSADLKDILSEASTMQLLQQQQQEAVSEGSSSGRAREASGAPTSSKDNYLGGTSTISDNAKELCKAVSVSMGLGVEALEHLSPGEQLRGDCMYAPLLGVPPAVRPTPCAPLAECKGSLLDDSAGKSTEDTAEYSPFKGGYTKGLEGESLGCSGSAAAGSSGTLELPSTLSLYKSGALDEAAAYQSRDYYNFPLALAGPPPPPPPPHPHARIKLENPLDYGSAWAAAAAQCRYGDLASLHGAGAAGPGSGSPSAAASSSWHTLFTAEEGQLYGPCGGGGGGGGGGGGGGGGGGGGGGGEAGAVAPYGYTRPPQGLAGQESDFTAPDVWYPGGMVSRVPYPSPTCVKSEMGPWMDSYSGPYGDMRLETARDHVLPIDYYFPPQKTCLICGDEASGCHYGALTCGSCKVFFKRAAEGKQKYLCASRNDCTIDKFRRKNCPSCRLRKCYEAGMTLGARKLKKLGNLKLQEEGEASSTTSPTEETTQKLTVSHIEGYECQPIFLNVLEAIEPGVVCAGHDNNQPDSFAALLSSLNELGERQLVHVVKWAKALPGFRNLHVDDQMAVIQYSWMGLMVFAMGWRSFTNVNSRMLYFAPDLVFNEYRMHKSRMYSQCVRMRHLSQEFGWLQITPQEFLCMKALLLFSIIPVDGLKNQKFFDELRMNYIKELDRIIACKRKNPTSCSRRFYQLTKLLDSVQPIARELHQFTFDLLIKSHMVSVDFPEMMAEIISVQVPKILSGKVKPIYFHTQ
UniProt P38646, residues 47-679: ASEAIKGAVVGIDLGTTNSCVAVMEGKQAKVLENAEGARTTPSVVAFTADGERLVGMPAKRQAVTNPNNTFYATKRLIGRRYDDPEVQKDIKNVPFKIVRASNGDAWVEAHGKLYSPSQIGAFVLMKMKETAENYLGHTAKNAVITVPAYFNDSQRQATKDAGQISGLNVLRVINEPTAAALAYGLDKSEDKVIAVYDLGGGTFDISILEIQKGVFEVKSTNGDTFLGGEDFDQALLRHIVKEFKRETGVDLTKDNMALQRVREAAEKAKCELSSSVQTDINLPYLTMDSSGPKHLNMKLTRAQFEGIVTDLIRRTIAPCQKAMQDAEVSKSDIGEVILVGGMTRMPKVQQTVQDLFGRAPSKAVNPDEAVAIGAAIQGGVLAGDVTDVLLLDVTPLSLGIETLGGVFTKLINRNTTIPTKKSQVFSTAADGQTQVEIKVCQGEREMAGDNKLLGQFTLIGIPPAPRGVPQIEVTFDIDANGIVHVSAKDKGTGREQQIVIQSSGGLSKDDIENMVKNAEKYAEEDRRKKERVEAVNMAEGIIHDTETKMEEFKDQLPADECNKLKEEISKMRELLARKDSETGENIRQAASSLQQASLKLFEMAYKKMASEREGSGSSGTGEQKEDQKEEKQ
UniProt P11021, residues 19-654: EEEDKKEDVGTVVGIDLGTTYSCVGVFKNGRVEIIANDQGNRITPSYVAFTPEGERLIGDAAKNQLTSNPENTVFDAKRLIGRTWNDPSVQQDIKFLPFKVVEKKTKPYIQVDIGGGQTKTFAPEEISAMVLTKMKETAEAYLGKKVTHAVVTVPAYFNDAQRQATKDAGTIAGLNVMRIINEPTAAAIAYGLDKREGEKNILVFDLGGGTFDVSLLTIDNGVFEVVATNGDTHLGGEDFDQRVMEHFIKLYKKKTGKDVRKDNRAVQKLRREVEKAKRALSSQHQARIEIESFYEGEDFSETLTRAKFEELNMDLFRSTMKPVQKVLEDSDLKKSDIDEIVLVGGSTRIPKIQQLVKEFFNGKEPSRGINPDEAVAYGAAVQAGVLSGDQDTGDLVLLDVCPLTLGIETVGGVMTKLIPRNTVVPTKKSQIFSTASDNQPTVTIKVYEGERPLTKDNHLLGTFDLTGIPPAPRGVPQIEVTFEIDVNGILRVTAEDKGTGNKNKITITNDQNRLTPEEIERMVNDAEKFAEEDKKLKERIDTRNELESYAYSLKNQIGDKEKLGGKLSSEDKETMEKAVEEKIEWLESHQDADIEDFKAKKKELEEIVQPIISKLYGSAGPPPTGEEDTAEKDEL

Legend:
Hsp70 (human) = Hsp70 (human) (UniProt P0DMV8); assay: GST pull-down from 22Rv.1 lysate, immunoblot
[1] = target: androgen receptor (human) (UniProt P10275); assay: GST pull-down from 22Rv.1 lysate (vehicle or DHT), immunoblot
GRP75 (human) [2] = target: GRP75 (human) (UniProt P38646); assay: GST pull-down from 22Rv.1 lysate, immunoblot with anti-GRP75 (FIG. 4C)
GRP78 (human) [3] = target: GRP78 (human) (UniProt P11021); assay: GST pull-down from 22Rv.1 lysate, immunoblot with anti-GRP78 (FIG. 4C)
GRP75 (human) [4] = target: GRP75 (human) (UniProt P38646); assay: GST pull-down from 22Rv.1 and LNCaP lysates, silver stain, identified by nanoLC-ESI-MSMS as GRP75, GRP78, polyubiquitin, and histone H2ai
GRP78 (human) [5] = target: GRP78 (human) (UniProt P11021); assay: as above

Measured: binding

GST-Bag-1L-(202-345) (from UniProt P08515 1-218; Q99933 202-345)
binds: all assays above
